Measurements reported in PubChem BioAssay AID1259254 (NCATS, 2017).
Shown is one part, drawn at random, of about 59,000 reagents tested. About 1,550 of all reagents (2.6%) count as active. 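G2 share is only a proxy for re-replication; each gene was hit by three separate siRNAs, and active genes were retested.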 Reagents against one gene are numbered here. Not all columns of the deposit are shown. Not given: the amount of reagent.

- Assay: 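Genome-wide screen for genes that prevent DNA re-replication in cancer cells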 (primary screen)
- Cells: human HCT116 colorectal cancer cells
- Knock-down reagent: single siRNA against human genes
- Duration: 3 days
- Measured: 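Nuclei stained with Hoechst and imaged; cell-cycle phase assigned by DNA content; G2 share scaled per plate, non-targeting siRNA 0%, GMNN siRNA 100%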
- Direction: G2 robust z-score: higher = more G2 cells, more excess DNA replication
- Active means: 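Active siRNAs have a G2 robust z of 5 or more median absolute deviations over the median, which in these data means about 38% or higher of GMNN control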

For OR10J5 (GeneID 127385) #1, what does the deposit list?
G2 robust z-score: -0.961; Call: inactive

For OR10J5 (GeneID 127385) #2, how do the results read?
G2 robust z-score: 1.28; Call: inactive

Which result is listed for OR10J5 (GeneID 127385) #3?
G2 robust z-score: -0.248; Call: inactive

For ARHGAP28 (GeneID 79822) #1, what was measured?
G2 robust z-score: -0.0299; Call: inactive

With ARHGAP28 (GeneID 79822) #2, what does the deposit list?
G2 robust z-score: -0.242; Call: inactive

How did the screen score ARHGAP28 (GeneID 79822) #3?
G2 robust z-score: 1.98; Call: inactive

How did the screen score B3GNT6 (GeneID 192134) #1?
G2 robust z-score: -0.89; Call: inactive

What is on record for B3GNT6 (GeneID 192134) #2?
G2 robust z-score: 0.475; Call: inactive

How did the screen score B3GNT6 (GeneID 192134) #3?
G2 robust z-score: 1.42; Call: inactive

Entries above whose gene name begins with B or b (3):
B3GNT6 (GeneID 192134) #1 → G2 robust z-score = -0.89; Call = inactive
B3GNT6 (GeneID 192134) #2 → G2 robust z-score = 0.475; Call = inactive
B3GNT6 (GeneID 192134) #3 → G2 robust z-score = 1.42; Call = inactive

Continued:
For TRIM22 (GeneID 10346) #1, what does the deposit list?
G2 robust z-score: -1.63; Call: inactive

What is on record for TRIM22 (GeneID 10346) #2?
G2 robust z-score: -1.24; Call: inactive

Which result is listed for TRIM22 (GeneID 10346) #3?
G2 robust z-score: -1.11; Call: inactive

With SYCP2L (GeneID 221711) #1, how do the results read?
G2 robust z-score: 2.87; Call: inactive

For SYCP2L (GeneID 221711) #2, how do the results read?
G2 robust z-score: 0.481; Call: inactive

What is on record for SYCP2L (GeneID 221711) #3?
G2 robust z-score: -0.816; Call: inactive

For TDRG1 (GeneID 732253) #1, how do the results read?
G2 robust z-score: 0.315; Call: inactive

What is on record for TDRG1 (GeneID 732253) #2?
G2 robust z-score: 0.0637; Call: inactive

What is on record for TDRG1 (GeneID 732253) #3?
G2 robust z-score: 0.226; Call: inactive

What is on record for TKT (GeneID 7086) #1?
G2 robust z-score: -0.434; Call: inactive

Which result is listed for TKT (GeneID 7086) #2?
G2 robust z-score: 7.2; Call: active

For TKT (GeneID 7086) #3, what does the deposit list?
G2 robust z-score: -0.0784; Call: inactive

How did the screen score UBOX5 (GeneID 22888) #1?
G2 robust z-score: 0.374; Call: inactive

With UBOX5 (GeneID 22888) #2, what was measured?
G2 robust z-score: -0.26; Call: inactive

For UBOX5 (GeneID 22888) #3, what does the deposit list?
G2 robust z-score: -0.737; Call: inactive
